Reference: PubChem BioAssay AID1508597 (Cure First, 2020)
Shown is a random part of the about 2,100 reagents, under one of the conditions tested. 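Calls flag viability under 80% in either arm, not effects specific to rucaparib; the reference for percent is not stated.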 A number with no mark means an inactive call. A reagent listed more than once was tested more than once; the source does not tell the runs apart. Not stated in the record: the 100% reference.

Purpose: 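Knock-downs altering ovarian cancer cell survival with or without PARP inhibitor rucaparib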 (primary screen)
Cells: human ovarian carcinoma lines grown from tumours: OCI-P5x (papillary serous) and OCI-C5x (clear cell)
Knock-down reagent: siRNA pool against human genes, 1.25 pmol siRNA per well
Time to read-out: 72 h or 96 h, depending on the cell culture
Treatment: rucaparib 20 µM (about IC30) or vehicle, present until read-out
Rucaparib or vehicle: Vehicle
Cell line: OCI-C5x (clear cell)
Measured: 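Luminescent ATP-based viability assay read 72 or 96 h after transfection, depending on culture, given as normalised percent viability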
Scale: viability, normalised: higher = more viable cells remaining
Rule for the call: 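a well counts as a hit if its normalised viability is under 80 percent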
Meaning of the calls: active = viability under 80%; inactive = viability 80% or more

For ZMYND8, technical replicate 1, the values are viability, normalised (%) = 56 (active).
With ZMYND8, technical replicate 2 the deposit lists viability, normalised (%) = 86.1.
ZMYND8, technical replicate 3 showed viability, normalised (%) = 62.8 (active).
With PELP1, technical replicate 1, the entry reads viability, normalised (%) = 57 (active).
PELP1, technical replicate 2 scored viability, normalised (%) = 47.4 (active).
PELP1, technical replicate 3 scored viability, normalised (%) = 40.6 (active).
For DBH, technical replicate 1 the deposit lists viability, normalised (%) = 36.6 (active).
With DBH, technical replicate 2 the deposit lists viability, normalised (%) = 43.8 (active).
DBH, technical replicate 3 scored viability, normalised (%) = 36.7 (active).
With CDK4, technical replicate 1 the deposit lists viability, normalised (%) = 50.7 (active).
CDK4, technical replicate 2 showed viability, normalised (%) = 50.8 (active).
CDK4, technical replicate 3 scored viability, normalised (%) = 59.1 (active).
ESRRB, technical replicate 1 scored viability, normalised (%) = 59.3 (active).
ESRRB, technical replicate 2 gave viability, normalised (%) = 77.9 (active).
With ESRRB, technical replicate 3 the deposit lists viability, normalised (%) = 71 (active).
H4C1, technical replicate 1 gave viability, normalised (%) = 42.3 (active).
H4C1, technical replicate 1 gave viability, normalised (%) = 42 (active).
With H4C1, technical replicate 2, the entry reads viability, normalised (%) = 46.9 (active).
H4C1, technical replicate 2 gave viability, normalised (%) = 50.1 (active).
For H4C1, technical replicate 3, the values are viability, normalised (%) = 42.8 (active).
For H4C1, technical replicate 3, the values are viability, normalised (%) = 44.8 (active).
CDC5L, technical replicate 1 showed viability, normalised (%) = 20.7 (active).
For CDC5L, technical replicate 2, the entry reads viability, normalised (%) = 30.5 (active).
CDC5L, technical replicate 3 showed viability, normalised (%) = 22.2 (active).
With ZCWPW1, technical replicate 1 the deposit lists viability, normalised (%) = 33.9 (active).
With ZCWPW1, technical replicate 2, the entry reads viability, normalised (%) = 32.6 (active).
ZCWPW1, technical replicate 3 scored viability, normalised (%) = 41.7 (active).
For CCNH, technical replicate 1 the deposit lists viability, normalised (%) = 65.1 (active).
For CCNH, technical replicate 2 the deposit lists viability, normalised (%) = 39.4 (active).
CCNH, technical replicate 3 showed viability, normalised (%) = 37.2 (active).
For BCL10, technical replicate 1 the deposit lists viability, normalised (%) = 43.9 (active).
BCL10, technical replicate 2 showed viability, normalised (%) = 40 (active).
BCL10, technical replicate 3 gave viability, normalised (%) = 31 (active).

Copied from the listing for reference:
H4C1, technical replicate 2 | viability, normalised (%) = 46.9 (active)
H4C1, technical replicate 2 | viability, normalised (%) = 50.1 (active)
H4C1, technical replicate 3 | viability, normalised (%) = 42.8 (active)
H4C1, technical replicate 3 | viability, normalised (%) = 44.8 (active)
CDC5L, technical replicate 1 | viability, normalised (%) = 20.7 (active)
